Article PMC10165355
No constants are given. Whether binding was seen depends on the method and setting. In cells and extracts the contact can be indirect. These calls come from enrichment with a bait or labelling near it, and not all partners need be listed. Sequences can lack the tags named with a protein.

Target: T1, Flag-DCLK1 (doublecortin-like kinase 1) (UniProt O15075)
T1 sequence: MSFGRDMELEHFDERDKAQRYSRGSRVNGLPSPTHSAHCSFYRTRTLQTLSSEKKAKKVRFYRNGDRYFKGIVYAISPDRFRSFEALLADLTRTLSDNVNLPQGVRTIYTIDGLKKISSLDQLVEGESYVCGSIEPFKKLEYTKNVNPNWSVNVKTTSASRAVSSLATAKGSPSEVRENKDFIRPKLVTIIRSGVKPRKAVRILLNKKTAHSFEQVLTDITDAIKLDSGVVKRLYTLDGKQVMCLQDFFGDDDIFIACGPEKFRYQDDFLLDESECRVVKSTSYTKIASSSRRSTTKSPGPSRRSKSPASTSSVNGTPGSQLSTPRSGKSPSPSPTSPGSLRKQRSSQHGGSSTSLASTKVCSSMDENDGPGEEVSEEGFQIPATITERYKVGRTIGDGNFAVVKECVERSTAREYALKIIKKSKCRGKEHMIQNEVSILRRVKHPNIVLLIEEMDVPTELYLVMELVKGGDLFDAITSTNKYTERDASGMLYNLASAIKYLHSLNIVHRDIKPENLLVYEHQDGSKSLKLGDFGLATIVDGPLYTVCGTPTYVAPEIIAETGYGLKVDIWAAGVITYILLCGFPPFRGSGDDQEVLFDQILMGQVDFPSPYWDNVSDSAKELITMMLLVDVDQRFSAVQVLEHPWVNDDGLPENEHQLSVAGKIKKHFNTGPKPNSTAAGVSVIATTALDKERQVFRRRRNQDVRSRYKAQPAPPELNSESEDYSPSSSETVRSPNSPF
Test: affinity purification with mass spectrometry; anti-Flag antibody added to lysate of 293T cells transfected with Flag-DCLK1; IgG as negative control; LC-MS/MS of the co-immunoprecipitate

binding: binds
B1: IKKβ (endogenous in 293T cells) (protein, UniProt O14920 1-756)
chain: MSWSPSLTTQTCGAWEMKERLGTGGFGNVIRWHNQETGEQIAIKQCRQELSPRNRERWCLEIQIMRRLTHPNVVAARDVPEGMQNLAPNDLPLLAMEYCQGGDLRKYLNQFENCCGLREGAILTLLSDIASALRYLHENRIIHRDLKPENIVLQQGEQRLIHKIIDLGYAKELDQGSLCTSFVGTLQYLAPELLEQQKYTVTVDYWSFGTLAFECITGFRPFLPNWQPVQWHSKVRQKSEVDIVVSEDLNGTVKFSSSLPYPNNLNSVLAERLEKWLQLMLMWHPRQRGTDPTYGPNGCFKALDDILNLKLVHILNMVTGTIHTYPVTEDESLQSLKARIQQDTGIPEEDQELLQEAGLALIPDKPATQCISDGKLNEGHTLDMDLVFLFDNSKITYETQISPRPQPESVSCILQEPKRNLAFFQLRKVWGQVWHSIQTLKEDCNRLQQGQRAAMMNLLRNNSCLSKMKNSMASMSQQLKAKLDFFKTSIQIDLEKYSEQTEFGITSDKLLLAWREMEQAVELCGRENEVKLLVERMMALQTDIVDLQRSPMGRKQGGTLDDLEEQARELYRRLREKPRDQRTEGDSQEMVRLLLQAIQSFEKKVRVIYTQLSKTVVCKQKALELLPKVEEVVSLMNEDEKTVVRLQEKRQKELWNLLKIACSKVRGPVSGSPDSMNASRLSQPGQLMSQPSTASNSLPEPAKKSEELVAEAHNLCTLLENAIQDTVREQDQSFTALDWSWLQTEEEEHSCLEQAS
